Assay results from patent publication US5380668A (University of Utah Research Foundation, priority 1993, dated 1995).
Part of at least one peptide drawing is inferred or uncertain, most often the ends. Where no end group is shown, it is not given here.

Molecular target: second monoclonal antibody directed against hCG
Assay: solution phase immunoassay with second monoclonal antibody
Format: binding
Conditions: read-out: equilibrium constant

For “GPRYNF [EXAMPLE IV(a), Gly-Pro-Arg-Tyr-Asn-Phe]”, the Kd was 34.6 nM.
